Source: patent US8318163 (Genentech, dated 2012)
These are yes or no findings as the source states them, for the method shown. Some entries that bind do so weakly or less than the wild type.

Assays:
[1] = target: T1, human Nrp1 protein (BIAcore analyte) (human, UniProt O14786 22-586, limits assumed); test: BIAcore (FIG. 11)
T1 construct: no residue range for such an Nrp1 construct is printed; also called neuropilin-1
T1 sequence (looked up): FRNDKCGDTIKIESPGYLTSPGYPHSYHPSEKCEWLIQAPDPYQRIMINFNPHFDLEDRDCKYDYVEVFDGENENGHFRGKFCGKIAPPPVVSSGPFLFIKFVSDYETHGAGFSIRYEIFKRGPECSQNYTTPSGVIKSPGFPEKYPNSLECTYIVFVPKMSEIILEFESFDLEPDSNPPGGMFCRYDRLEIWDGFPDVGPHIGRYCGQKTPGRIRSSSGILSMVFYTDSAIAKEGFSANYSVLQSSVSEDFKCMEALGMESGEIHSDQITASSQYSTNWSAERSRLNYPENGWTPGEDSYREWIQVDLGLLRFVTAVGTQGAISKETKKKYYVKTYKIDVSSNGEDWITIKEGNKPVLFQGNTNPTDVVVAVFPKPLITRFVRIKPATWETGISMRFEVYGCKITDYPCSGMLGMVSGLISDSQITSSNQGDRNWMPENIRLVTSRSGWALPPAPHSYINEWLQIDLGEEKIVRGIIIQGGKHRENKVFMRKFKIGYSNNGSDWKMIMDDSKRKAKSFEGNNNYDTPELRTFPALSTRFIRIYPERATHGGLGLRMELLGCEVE

[2] = target: T1, human Nrp1 protein (BIAcore analyte); test: BIAcore, IgG immobilized, 500 nM human NRP protein injected, 25 C
[3] = target: T1, human Nrp1 protein (BIAcore analyte); test: BIAcore (SPR), 500 nM Nrp protein injected over immobilized IgG at 25 C

Measured: binding

B1: anti-panNrp^A antibody, clone YW68.11.26 (IgG) (antibody, V domains shown)
VH: EVQLVESGGGLVQPGGSLRLSCAASGFTISGYGIHWVRQAPGKGLEWVAYIYPDSGYTDYADSVKGRFTISADTSKNTAYLQMNSLRAEDTAVYYCAREDFRNRRRLWYVMDYWGQGT
VL: DIQMTQSPSSLSASVGDRVTITCRASQDVSTAVAWYQQKPGKAPKLLIYSASFLYSGVPSRFSGSGSGTDFTLTDSSLQPEDFATYYCQQAWAYLTTFGQGTKVEIKR
notes: Human IgG1 from a synthetic phage library; immobilized as IgG on the BIAcore chip
binds: all assays above
